Experimental data: PubChem BioAssay AID1259405 (NCATS, 2018)
Screen: 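Knock-downs that lift recombinant protein yield in hamster ovary cells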 (primary screen). Cells: Chinese hamster CHO-K1 ovary cells with stable secreted eGFP expression. Reagents: single siRNA against mouse genes, 0.8 pmol siRNA per well (2 µl of 400 nM stock). Timing: 3 days. Read-out: 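Per-well intracellular GFP measured by laser scanning cytometry, plus viability from ATP luminescence, each relative to plate median of non-targeting control wells, in %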. Scale: GFP, % of control: higher = more GFP per well, higher productivity; viability (ATP), % of control: higher = more viable cells (more ATP). Hit rule: 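a knock-down is called active if GFP reaches 120% or more of non-targeting control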.
Here is an unselected part of about 50,000 deposited reagents. About 4,000 of them (8%) count as active. 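Mouse siRNA library applied to hamster cells; one well for each siRNA.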 Reagents against one gene are numbered here. Reagent sequences are not shown.

| gene | reagent | GFP, % of control | viability (ATP), % of control | Outcome |
| --- | --- | --- | --- | --- |
| Spock2 | 1 | 56.7 | 61.1 | inactive |
| Spock2 | 2 | 105 | 102 | inactive |
| Spock2 | 3 | 52.5 | 74.3 | inactive |
| Ier2 | 1 | 67.8 | 64.8 | inactive |
| Ier2 | 2 | 65.7 | 87.5 | inactive |
| Ier2 | 3 | 84.4 | 80.8 | inactive |
| Guca1b | 1 | 64.6 | 79.3 | inactive |
| Guca1b | 2 | 66.2 | 70.5 | inactive |
| Dcpp1 | 1 | 67.5 | 89.8 | inactive |
| Dcpp1 | 2 | 67 | 70.3 | inactive |
| Dcpp1 | 3 | 77.8 | 63 | inactive |
| Dcpp1 | 4 | 48 | 55 | inactive |
| Dcpp1 | 5 | 123 | 66.1 | active |
| Dcpp1 | 6 | 98.1 | 78.3 | inactive |
| Ccng2 | 1 | 92.9 | 103 | inactive |
| Ccng2 | 2 | 75.7 | 62.2 | inactive |
| Nod2 | 1 | 139 | 102 | active |
| Nod2 | 2 | 141 | 73.3 | active |
| Dner | 1 | 106 | 97.5 | inactive |
| Dner | 2 | 69.1 | 67.4 | inactive |
| Dner | 3 | 80 | 74.8 | inactive |
| Plek | 1 | 73.5 | 68.5 | inactive |
| Plek | 2 | 52 | 80.2 | inactive |
| Plek | 3 | 80.7 | 85.6 | inactive |
| Tspan14 | 1 | 54.4 | 49.2 | inactive |
| Tspan14 | 2 | 75.7 | 89.7 | inactive |
| Tspan14 | 3 | 67.3 | 75.1 | inactive |
| Tmem108 | 1 | 124 | 102 | active |
| Tmem108 | 2 | 46.9 | 62.9 | inactive |
| Tmem108 | 3 | 65.2 | 57 | inactive |
| Or4f56 | 1 | 133 | 97 | active |
| Or4f56 | 2 | 118 | 61.8 | inactive |
| Or4f56 | 3 | 65.7 | 57.2 | inactive |
| Fgf21 | 1 | 84.7 | 59.3 | inactive |
| Fgf21 | 2 | 91.6 | 68.4 | inactive |
| Fgf21 | 3 | 43.8 | 67.7 | inactive |
| Stard13 | 1 | 68.6 | 89 | inactive |
| Stard13 | 2 | 104 | 79.5 | inactive |
| Stard13 | 3 | 51.7 | 50.2 | inactive |
| Abca16 | 1 | 102 | 103 | inactive |
| Abca16 | 2 | 65.7 | 77.4 | inactive |
| Abca16 | 3 | 65.8 | 80 | inactive |
| Trib2 | 1 | 95.6 | 98.1 | inactive |
| Trib2 | 2 | 59.2 | 72.4 | inactive |
| Trib2 | 3 | 102 | 75.5 | inactive |
| Aldoc | 1 | 39.9 | 62.3 | inactive |
| Aldoc | 2 | 51.2 | 85.3 | inactive |
| Aldoc | 3 | 45.7 | 69.9 | inactive |
| Or4c125 | 1 | 91.7 | 50.6 | inactive |
| Or4c125 | 2 | 63.5 | 79.9 | inactive |
| Or4c125 | 3 | 19.4 | 57.6 | inactive |
| Nhsl3 | 1 | 83 | 82.2 | inactive |
| Nhsl3 | 2 | 115 | 26 | inactive |
| Nhsl3 | 3 | 91.6 | 108 | inactive |

Records above whose gene name starts with N or n (5):
| gene | reagent | GFP, % of control | viability (ATP), % of control | Outcome |
| --- | --- | --- | --- | --- |
| Nod2 | 1 | 139 | 102 | active |
| Nod2 | 2 | 141 | 73.3 | active |
| Nhsl3 | 1 | 83 | 82.2 | inactive |
| Nhsl3 | 2 | 115 | 26 | inactive |
| Nhsl3 | 3 | 91.6 | 108 | inactive |

The list goes on.
| gene | reagent | GFP, % of control | viability (ATP), % of control | Outcome |
| --- | --- | --- | --- | --- |
| Epb41l2 | 1 | 66 | 74.4 | inactive |
| Epb41l2 | 2 | 70.9 | 74.7 | inactive |
| Epb41l2 | 3 | 73.8 | 86.1 | inactive |
| Treh | 1 | 108 | 77.1 | inactive |
| Treh | 2 | 60.3 | 56.6 | inactive |
| Treh | 3 | 67.9 | 92.8 | inactive |
| Hspa4l | 1 | 102 | 143 | inactive |
| Hspa4l | 2 | 64.8 | 79.5 | inactive |
| Ppil2 | 1 | 182 | 122 | active |
| Ppil2 | 2 | 105 | 81 | inactive |
| Ppil2 | 3 | 96 | 72.6 | inactive |
| Tcte2 | 1 | 81.6 | 37.1 | inactive |
| Tcte2 | 2 | 107 | 103 | inactive |
| Tcte2 | 3 | 102 | 104 | inactive |
| Rab11a | 1 | 110 | 124 | inactive |
| Rab11a | 2 | 86.2 | 70.5 | inactive |
| Rab11a | 3 | 59.8 | 52.6 | inactive |
| Prl5a1 | 1 | 45.3 | 37.6 | inactive |
| Prl5a1 | 2 | 93.8 | 80.8 | inactive |
| Prl5a1 | 3 | 84.1 | 76.2 | inactive |
| Micu2 | 1 | 63.2 | 63.3 | inactive |
| Micu2 | 2 | 52.8 | 64.8 | inactive |
| Micu2 | 3 | 42.9 | 34.2 | inactive |
| Dusp8 | 1 | 72.5 | 84.9 | inactive |
| Dusp8 | 2 | 46.4 | 46.7 | inactive |
| Zfp62 | 1 | 65.9 | 69.4 | inactive |
| Zfp62 | 2 | 68.9 | 68.8 | inactive |
| Zfp62 | 3 | 85.3 | 72.1 | inactive |
| Polr1g | 1 | 77.3 | 36.5 | inactive |
| Polr1g | 2 | 96 | 62.2 | inactive |
| Polr1g | 3 | 93 | 81.4 | inactive |
| Or51m1 | 1 | 85.1 | 78.5 | inactive |
| Or51m1 | 2 | 65.4 | 68.1 | inactive |
| Or51m1 | 3 | 73.2 | 73.3 | inactive |
| Timm8b | 1 | 47.8 | 51.9 | inactive |
| Timm8b | 2 | 126 | 74 | active |
| Timm8b | 3 | 108 | 105 | inactive |
| Tango2 | 1 | 59.8 | 98.4 | inactive |
| Tango2 | 2 | 51 | 62.3 | inactive |
| Tango2 | 3 | 104 | 70 | inactive |
| 4930433I11Rik | 1 | 87.1 | 58.8 | inactive |
| 4930433I11Rik | 2 | 156 | 71.5 | active |
| 4930433I11Rik | 3 | 45.1 | 55.7 | inactive |
| Jph3 | 1 | 41.4 | 64.6 | inactive |
| Jph3 | 2 | 67.8 | 66.7 | inactive |
| Jph3 | 3 | 92.2 | 34.6 | inactive |
| Cisd1 | 1 | 54.6 | 58.7 | inactive |
| Cisd1 | 2 | 65.5 | 78.3 | inactive |
| Cisd1 | 3 | 110 | 108 | inactive |
| Noa1 | 1 | 98.5 | 84.9 | inactive |
| Noa1 | 2 | 37 | 51 | inactive |
| Noa1 | 3 | 85.5 | 82.7 | inactive |
| Ciao2b | 1 | 77.8 | 86 | inactive |
| Ciao2b | 2 | 70.6 | 75.8 | inactive |
| Ciao2b | 3 | 105 | 76.1 | inactive |
